Experimental data from patent publication US20200283482A1 (BicycleRD Limited, priority 2017, published 2020).

Test: general procedure: Fmoc solid-phase peptide synthesis; Chlorotrityl (CTC) resin, 1.1 mmol/g; HBTU/DIPEA
Settings: conjugation step

Substance	conjugation yield	final purity (method not given)
PEPTIDE1{[capI-7].[bAla].[Sar].[Sar].[Sar].[Sar].[Sar].[Sar].[Sar].[Sar].[Sar].[Sar].A.C.[dA].N.E.[1Nal].[dA].C.E.D.F.Y.D.[tBuGly].C.[am]}|CHEM1{[TBMB]}$PEPTIDE1,CHEM1,14:R3-1:R1|PEPTIDE1,CHEM1,20:R3-1:R2|PEPTIDE1,CHEM1,27:R3-1:R3$$$V2.0	40.1%	97.47%
PEPTIDE1{[capI-17].[bAla].[Sar].[Sar].[Sar].[Sar].[Sar].[Sar].[Sar].[Sar].[Sar].[Sar].A.C.[dA].N.E.[1Nal].[dA].C.E.D.F.Y.D.[tBuGly].C.[am]}|CHEM1{[TBMB]}$PEPTIDE1,CHEM1,14:R3-1:R1|PEPTIDE1,CHEM1,20:R3-1:R2|PEPTIDE1,CHEM1,27:R3-1:R3$$$V2.0	30.9%	97.2%
PEPTIDE1{[capI-23].[bAla].[Sar].[Sar].[Sar].[Sar].[Sar].[Sar].[Sar].[Sar].[Sar].[Sar].A.C.[dA].N.E.[1Nal].[dA].C.E.D.F.Y.D.[tBuGly].C.[am]}|CHEM1{[TBMB]}$PEPTIDE1,CHEM1,14:R3-1:R1|PEPTIDE1,CHEM1,20:R3-1:R2|PEPTIDE1,CHEM1,27:R3-1:R3$$$V2.0	48.52% yield	93.76% purity
PEPTIDE1{[capI-24].[bAla].[Sar].[Sar].[Sar].[Sar].[Sar].[Sar].[Sar].[Sar].[Sar].[Sar].A.C.[dA].N.E.[1Nal].[dA].C.E.D.F.Y.D.[tBuGly].C.[am]}|CHEM1{[TBMB]}$PEPTIDE1,CHEM1,14:R3-1:R1|PEPTIDE1,CHEM1,20:R3-1:R2|PEPTIDE1,CHEM1,27:R3-1:R3$$$V2.0	24.75% yield	95.2% purity
PEPTIDE1{[capI-25].[bAla].[Sar].[Sar].[Sar].[Sar].[Sar].[Sar].[Sar].[Sar].[Sar].[Sar].A.C.[dA].N.E.[1Nal].[dA].C.E.D.F.Y.D.[tBuGly].C.[am]}|CHEM1{[TBMB]}$PEPTIDE1,CHEM1,14:R3-1:R1|PEPTIDE1,CHEM1,20:R3-1:R2|PEPTIDE1,CHEM1,27:R3-1:R3$$$V2.0	30.43%	95.3%
PEPTIDE1{[capI-26].[bAla].[Sar].[Sar].[Sar].[Sar].[Sar].[Sar].[Sar].[Sar].[Sar].[Sar].A.C.[dA].N.E.[1Nal].[dA].C.E.D.F.Y.D.[tBuGly].C.[am]}|CHEM1{[TBMB]}$PEPTIDE1,CHEM1,14:R3-1:R1|PEPTIDE1,CHEM1,20:R3-1:R2|PEPTIDE1,CHEM1,27:R3-1:R3$$$V2.0	38.9% yield	94.0% purity
PEPTIDE1{[capI-27].[bAla].[Sar].[Sar].[Sar].[Sar].[Sar].[Sar].[Sar].[Sar].[Sar].[Sar].A.C.[dA].N.E.[1Nal].[dA].C.E.D.F.Y.D.[tBuGly].C.[am]}|CHEM1{[TBMB]}$PEPTIDE1,CHEM1,14:R3-1:R1|PEPTIDE1,CHEM1,20:R3-1:R2|PEPTIDE1,CHEM1,27:R3-1:R3$$$V2.0	64.82%	95.6%
PEPTIDE1{[capI-28].[bAla].[Sar].[Sar].[Sar].[Sar].[Sar].[Sar].[Sar].[Sar].[Sar].[Sar].A.C.[dA].N.E.[1Nal].[dA].C.E.D.F.Y.D.[tBuGly].C.[am]}|CHEM1{[TBMB]}$PEPTIDE1,CHEM1,14:R3-1:R1|PEPTIDE1,CHEM1,20:R3-1:R2|PEPTIDE1,CHEM1,27:R3-1:R3$$$V2.0	13.11%	98.23%
PEPTIDE1{[capI-29].[bAla].[Sar].[Sar].[Sar].[Sar].[Sar].[Sar].[Sar].[Sar].[Sar].[Sar].A.C.[dA].N.E.[1Nal].[dA].C.E.D.F.Y.D.[tBuGly].C.[am]}|CHEM1{[TBMB]}$PEPTIDE1,CHEM1,14:R3-1:R1|PEPTIDE1,CHEM1,20:R3-1:R2|PEPTIDE1,CHEM1,27:R3-1:R3$$$V2.0	22.98%	86.1%
PEPTIDE1{[capI-30].[bAla].[Sar].[Sar].[Sar].[Sar].[Sar].[Sar].[Sar].[Sar].[Sar].[Sar].A.C.[dA].N.E.[1Nal].[dA].C.E.D.F.Y.D.[tBuGly].C.[am]}|CHEM1{[TBMB]}$PEPTIDE1,CHEM1,14:R3-1:R1|PEPTIDE1,CHEM1,20:R3-1:R2|PEPTIDE1,CHEM1,27:R3-1:R3$$$V2.0	13.67%	97.0%
PEPTIDE1{[capI-31].[bAla].[Sar].[Sar].[Sar].[Sar].[Sar].[Sar].[Sar].[Sar].[Sar].[Sar].A.C.[dA].N.E.[1Nal].[dA].C.E.D.F.Y.D.[tBuGly].C.[am]}|CHEM1{[TBMB]}$PEPTIDE1,CHEM1,14:R3-1:R1|PEPTIDE1,CHEM1,20:R3-1:R2|PEPTIDE1,CHEM1,27:R3-1:R3$$$V2.0	24.41%	97.3%
PEPTIDE1{[capI-32].[bAla].[Sar].[Sar].[Sar].[Sar].[Sar].[Sar].[Sar].[Sar].[Sar].[Sar].A.C.[dA].N.E.[1Nal].[dA].C.E.D.F.Y.D.[tBuGly].C.[am]}|CHEM1{[TBMB]}$PEPTIDE1,CHEM1,14:R3-1:R1|PEPTIDE1,CHEM1,20:R3-1:R2|PEPTIDE1,CHEM1,27:R3-1:R3$$$V2.0	10.86%	96.6%
PEPTIDE1{[capI-33].[bAla].[Sar].[Sar].[Sar].[Sar].[Sar].[Sar].[Sar].[Sar].[Sar].[Sar].A.C.[dA].N.E.[1Nal].[dA].C.E.D.F.Y.D.[tBuGly].C.[am]}|CHEM1{[TBMB]}$PEPTIDE1,CHEM1,14:R3-1:R1|PEPTIDE1,CHEM1,20:R3-1:R2|PEPTIDE1,CHEM1,27:R3-1:R3$$$V2.0	26.72%	95.1%

Strings that start with PEPTIDE1 are HELM notation: dots part the residues, brackets hold end groups and non-standard residues.
